These are yes or no findings as the source states them, for the method shown. In cells and extracts the contact can be indirect. Some entries that bind do so weakly or less than the wild type.
How the values were obtained:
[1] = target: Ecdysoneless (ECD) protein (human (endogenous in MCF-10A)) (UniProt O95905); assay: proximity ligation; MCF-10A cells fixed with 3% PFA, stained with mouse anti-ECD and rabbit antibodies to the partner, DuoLink plus and minus probes; red dots indicate interactions
[2] = target: Ecdysoneless (ECD) protein (human (endogenous in MCF-10A)) (UniProt O95905); assay: co-IP; IP with anti-ECD antibody from lysates of MCF-10A cells treated with thapsigargin or left untreated (CHAPS buffer: 0.3% CHAPS, 20 mM Tris-HCl pH 7.4, 120 mM NaCl, 10% glycerol, 5 mM EDTA); Western blotting

Amino acid sequences for entries named in this document (tags omitted). Residues count along the entry.
UniProt O95905: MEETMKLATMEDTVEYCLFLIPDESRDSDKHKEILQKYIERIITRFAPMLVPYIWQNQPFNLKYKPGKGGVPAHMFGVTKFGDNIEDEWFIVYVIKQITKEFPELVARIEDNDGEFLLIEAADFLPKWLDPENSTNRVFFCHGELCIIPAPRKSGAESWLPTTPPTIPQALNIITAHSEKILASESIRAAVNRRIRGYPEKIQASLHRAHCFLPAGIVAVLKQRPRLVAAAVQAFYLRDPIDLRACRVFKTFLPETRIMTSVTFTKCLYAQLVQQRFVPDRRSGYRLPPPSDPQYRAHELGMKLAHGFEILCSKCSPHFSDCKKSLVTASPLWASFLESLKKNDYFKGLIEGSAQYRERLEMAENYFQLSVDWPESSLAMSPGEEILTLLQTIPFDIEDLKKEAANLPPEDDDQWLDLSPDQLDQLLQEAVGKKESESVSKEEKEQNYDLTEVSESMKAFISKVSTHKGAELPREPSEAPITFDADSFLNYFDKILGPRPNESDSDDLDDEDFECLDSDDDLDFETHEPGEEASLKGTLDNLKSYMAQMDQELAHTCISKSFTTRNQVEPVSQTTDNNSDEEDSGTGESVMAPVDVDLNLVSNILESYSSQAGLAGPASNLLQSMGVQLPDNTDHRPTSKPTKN
UniProt P11021, residues 19-654: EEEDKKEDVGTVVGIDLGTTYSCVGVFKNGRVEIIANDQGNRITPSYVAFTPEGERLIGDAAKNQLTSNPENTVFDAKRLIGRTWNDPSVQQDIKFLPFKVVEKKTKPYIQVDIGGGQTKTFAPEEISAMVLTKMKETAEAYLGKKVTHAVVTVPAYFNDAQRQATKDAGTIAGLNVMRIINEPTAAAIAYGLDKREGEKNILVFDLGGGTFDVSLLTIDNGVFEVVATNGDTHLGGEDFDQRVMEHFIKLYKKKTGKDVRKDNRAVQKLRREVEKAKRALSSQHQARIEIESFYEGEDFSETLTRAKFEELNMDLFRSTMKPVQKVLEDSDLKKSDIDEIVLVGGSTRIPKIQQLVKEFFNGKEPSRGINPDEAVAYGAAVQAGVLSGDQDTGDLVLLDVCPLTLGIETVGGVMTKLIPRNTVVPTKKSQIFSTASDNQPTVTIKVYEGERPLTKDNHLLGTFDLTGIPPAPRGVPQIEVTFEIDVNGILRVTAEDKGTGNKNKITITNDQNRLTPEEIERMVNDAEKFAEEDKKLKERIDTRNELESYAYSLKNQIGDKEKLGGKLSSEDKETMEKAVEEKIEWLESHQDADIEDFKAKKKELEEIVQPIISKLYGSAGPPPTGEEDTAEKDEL

- binding [1]: binds
- binding [2]: binds
Substance: GRP78 (from UniProt P11021 19-654)
